Data from publication PMC4923944.
Results are given in words; binding and its absence hold for the method and conditions named. Binding seen in cells or lysates may run through a third protein. A yes stands for co-enrichment or nearness to the bait. Other partners may have been found. Sequences can lack the tags named with a protein.

By UniProt entry, the sequences of proteins in these tests, tags left out.
UniProt P12004: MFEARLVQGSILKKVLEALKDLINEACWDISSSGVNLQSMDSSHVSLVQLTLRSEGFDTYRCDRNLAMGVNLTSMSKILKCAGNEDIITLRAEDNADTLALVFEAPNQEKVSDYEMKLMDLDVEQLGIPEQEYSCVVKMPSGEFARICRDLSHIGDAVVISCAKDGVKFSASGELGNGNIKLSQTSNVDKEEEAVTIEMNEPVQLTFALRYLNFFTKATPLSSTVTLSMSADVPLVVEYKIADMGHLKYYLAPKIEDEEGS

Target: T1, TRAIP C-terminally tagged with streptavidin binding peptide-S peptide-Flag (SFB) (human) (UniProt Q9BWF2)
T1 sequence: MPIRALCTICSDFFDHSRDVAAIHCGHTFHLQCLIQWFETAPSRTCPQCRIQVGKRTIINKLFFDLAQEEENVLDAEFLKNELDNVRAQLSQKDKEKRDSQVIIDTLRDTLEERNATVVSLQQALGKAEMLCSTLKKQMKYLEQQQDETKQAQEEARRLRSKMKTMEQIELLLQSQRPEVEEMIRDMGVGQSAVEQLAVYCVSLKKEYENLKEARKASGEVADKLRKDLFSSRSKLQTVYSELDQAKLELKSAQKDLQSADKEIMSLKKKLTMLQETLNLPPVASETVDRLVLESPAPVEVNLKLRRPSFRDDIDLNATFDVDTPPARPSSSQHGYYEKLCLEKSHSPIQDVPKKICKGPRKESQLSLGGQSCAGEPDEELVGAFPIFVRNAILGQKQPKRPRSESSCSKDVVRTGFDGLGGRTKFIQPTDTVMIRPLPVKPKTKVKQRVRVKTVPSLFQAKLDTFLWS
Experiment: affinity purification with mass spectrometry; tandem affinity purification of TRAIP-SFB from 293T cells treated with 5 mM HU for 4 h; NETN buffer; streptavidin sepharose then S protein agarose; LC/MS/MS

- binding: binds
Substance: proliferating cell nuclear antigen (PCNA), endogenous (from UniProt P12004 1-261)
